Assay results as given in publication PMC7862700.
The list shows a part of the results, in another mix than the full data. At the low end of the ranking, values are background and their order means little.

By UniProt entry, the sequences of proteins in these tests, tags left out. Where a name states a change or a piece, a line headed by the entry shows the natural chain unless it says otherwise.
UniProt P41161: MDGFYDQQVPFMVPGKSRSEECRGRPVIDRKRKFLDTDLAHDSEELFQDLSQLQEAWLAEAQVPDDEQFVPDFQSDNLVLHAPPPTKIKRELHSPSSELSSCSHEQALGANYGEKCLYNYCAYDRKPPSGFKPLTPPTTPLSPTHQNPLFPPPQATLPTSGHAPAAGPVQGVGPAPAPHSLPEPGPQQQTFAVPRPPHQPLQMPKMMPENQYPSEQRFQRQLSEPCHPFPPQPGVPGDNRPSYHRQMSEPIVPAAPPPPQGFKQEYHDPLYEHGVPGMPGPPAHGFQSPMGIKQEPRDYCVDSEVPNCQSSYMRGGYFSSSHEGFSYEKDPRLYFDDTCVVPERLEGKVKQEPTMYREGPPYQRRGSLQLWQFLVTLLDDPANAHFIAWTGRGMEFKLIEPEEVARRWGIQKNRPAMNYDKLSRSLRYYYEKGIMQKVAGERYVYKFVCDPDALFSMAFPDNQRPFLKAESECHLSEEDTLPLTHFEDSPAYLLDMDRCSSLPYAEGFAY
UniProt Q99607: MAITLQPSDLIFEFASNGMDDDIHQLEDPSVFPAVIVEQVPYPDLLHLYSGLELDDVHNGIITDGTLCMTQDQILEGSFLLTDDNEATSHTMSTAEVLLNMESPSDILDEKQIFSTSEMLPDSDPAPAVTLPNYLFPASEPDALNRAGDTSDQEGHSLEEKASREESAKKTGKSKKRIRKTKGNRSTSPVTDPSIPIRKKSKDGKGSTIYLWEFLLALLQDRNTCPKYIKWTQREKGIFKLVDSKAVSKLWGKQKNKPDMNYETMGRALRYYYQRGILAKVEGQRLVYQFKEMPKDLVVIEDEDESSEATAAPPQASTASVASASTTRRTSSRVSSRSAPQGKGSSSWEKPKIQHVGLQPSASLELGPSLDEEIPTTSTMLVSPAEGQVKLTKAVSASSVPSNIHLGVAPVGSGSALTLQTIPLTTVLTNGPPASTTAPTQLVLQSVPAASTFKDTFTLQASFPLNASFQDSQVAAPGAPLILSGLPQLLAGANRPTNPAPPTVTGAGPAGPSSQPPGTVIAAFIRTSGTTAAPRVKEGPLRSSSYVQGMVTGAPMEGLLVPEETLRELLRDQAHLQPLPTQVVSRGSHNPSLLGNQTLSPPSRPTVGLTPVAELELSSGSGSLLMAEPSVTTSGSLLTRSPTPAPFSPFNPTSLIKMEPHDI
UniProt Q01892: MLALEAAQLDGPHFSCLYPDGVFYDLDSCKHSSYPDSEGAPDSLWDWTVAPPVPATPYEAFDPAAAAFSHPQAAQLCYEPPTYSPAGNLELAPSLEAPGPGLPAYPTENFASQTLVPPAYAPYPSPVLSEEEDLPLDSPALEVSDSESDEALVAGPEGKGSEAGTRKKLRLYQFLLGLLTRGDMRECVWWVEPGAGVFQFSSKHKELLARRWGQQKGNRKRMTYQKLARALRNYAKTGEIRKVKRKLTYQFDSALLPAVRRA

Tests used:
Assay in all cases: DAPPL (digital affinity profiling via proximity ligation, sequencing)
Conditions in all cases: 10 mM Tris-HCl pH 7.5, 50 mM NaCl, 1 mM DTT, 4% glycerol, room temperature, 30 min; GST-TFs on glutathione beads, 16-mer random dsDNA library, 0.1% …; high values mean tight binding; double strand, one strand shown; scale: fold enrichment (6-mer frequency, TF over GST control)
FLI1 = target: T1, FLI1 (UniProt Q01543)
T1 sequence: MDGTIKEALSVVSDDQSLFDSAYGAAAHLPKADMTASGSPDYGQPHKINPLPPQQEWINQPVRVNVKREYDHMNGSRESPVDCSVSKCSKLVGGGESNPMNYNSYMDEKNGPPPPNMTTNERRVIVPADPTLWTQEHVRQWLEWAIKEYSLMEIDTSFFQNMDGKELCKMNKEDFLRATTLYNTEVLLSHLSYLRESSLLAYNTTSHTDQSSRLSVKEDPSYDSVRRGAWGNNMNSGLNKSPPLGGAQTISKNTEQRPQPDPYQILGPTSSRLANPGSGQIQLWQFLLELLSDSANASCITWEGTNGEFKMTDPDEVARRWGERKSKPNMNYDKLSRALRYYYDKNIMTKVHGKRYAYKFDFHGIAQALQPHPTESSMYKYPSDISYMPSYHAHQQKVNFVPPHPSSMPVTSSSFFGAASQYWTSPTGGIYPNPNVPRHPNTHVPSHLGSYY

ETV5 = ETV5 (UniProt P41161)
ELF4 = ELF4 (UniProt Q99607)
ETV2 = target: T2, ETV2 (UniProt O00321)
T2 sequence: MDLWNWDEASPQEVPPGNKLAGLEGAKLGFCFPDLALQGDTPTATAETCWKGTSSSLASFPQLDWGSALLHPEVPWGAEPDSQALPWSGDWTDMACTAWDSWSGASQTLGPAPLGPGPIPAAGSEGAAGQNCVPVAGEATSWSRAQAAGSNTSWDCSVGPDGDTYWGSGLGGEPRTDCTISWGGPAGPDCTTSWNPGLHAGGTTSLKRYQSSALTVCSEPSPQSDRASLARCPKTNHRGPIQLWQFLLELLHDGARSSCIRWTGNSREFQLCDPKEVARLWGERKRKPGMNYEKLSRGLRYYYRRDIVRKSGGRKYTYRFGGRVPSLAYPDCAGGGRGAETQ

EHF = target: T3, EHF (UniProt Q9NZC4)
T3 sequence: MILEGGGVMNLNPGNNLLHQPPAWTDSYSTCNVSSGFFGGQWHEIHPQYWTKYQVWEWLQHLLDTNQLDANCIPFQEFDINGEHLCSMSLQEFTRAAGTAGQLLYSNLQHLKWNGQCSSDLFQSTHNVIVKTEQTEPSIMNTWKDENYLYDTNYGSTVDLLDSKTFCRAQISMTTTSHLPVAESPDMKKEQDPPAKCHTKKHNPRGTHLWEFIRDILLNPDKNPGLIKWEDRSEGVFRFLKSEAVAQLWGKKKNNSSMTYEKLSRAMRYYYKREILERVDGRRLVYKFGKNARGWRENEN

SPIB = SPIB (UniProt Q01892)
ETV3L = target: T4, ETV3L (UniProt Q6ZN32)
T4 sequence: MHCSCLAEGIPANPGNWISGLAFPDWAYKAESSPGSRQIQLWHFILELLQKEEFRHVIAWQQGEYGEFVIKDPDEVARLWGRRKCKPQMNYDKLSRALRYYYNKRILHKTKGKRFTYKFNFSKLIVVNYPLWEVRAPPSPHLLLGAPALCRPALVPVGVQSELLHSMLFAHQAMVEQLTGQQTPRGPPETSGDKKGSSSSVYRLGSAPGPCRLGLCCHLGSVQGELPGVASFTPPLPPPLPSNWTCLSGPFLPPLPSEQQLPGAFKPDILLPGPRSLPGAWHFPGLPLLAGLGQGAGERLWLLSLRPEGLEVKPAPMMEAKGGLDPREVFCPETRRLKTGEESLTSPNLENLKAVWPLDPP

Sequence | binding signal (FLI1) | binding signal (ETV5) | binding signal (ELF4) | binding signal (ETV2) | binding signal (EHF) | binding signal (SPIB) | binding signal (ETV3L)
TATAGG | 1.14 | 1.24 | – | – | – | – | –
AACTAG | 1.06 | 1.15 | – | – | – | – | –
CTATAG | 1.09 | 1.1 | – | – | – | – | –
ATTCGC | 1.18 | 1.13 | – | – | – | – | –
CCTAAG | 1.09 | 1.2 | 1.26 | – | – | – | –
TCAAAT | 1.04 | 1.09 | 0.997 | – | – | – | –
TGATCG | 1 | 1.03 | 1.05 | 0.961 | – | – | –
TAGCAA | 1.15 | 1.33 | – | – | – | – | –
TTCCCA | 1.18 | 1.29 | – | – | – | – | –
CCACCA | 0.997 | 0.989 | 0.996 | 0.996 | – | – | –
ACACTC | 1.04 | 1.04 | – | – | – | – | –
AGTCCT | 1 | 1.05 | 0.987 | – | – | – | –
ACACCG | 1 | 0.917 | – | – | – | – | –
ACTATT | 1.29 | 1.22 | 1.3 | – | – | – | –
TGATAA | 0.964 | 0.972 | 1.07 | – | – | – | –
GCTGGT | 1.29 | 0.968 | 1.11 | – | – | – | –
ACGGCT | 1.02 | 1.13 | – | – | – | – | –
CCGCAA | 1.27 | 1.3 | – | – | – | – | –
TACTGT | 1.15 | 1.15 | – | – | – | – | –
CAGCTC | 0.909 | 0.966 | – | – | – | – | –
TTCCGA | 1.64 | 1.57 | – | – | – | – | –
CCACTC | 1.23 | 1.23 | 1.29 | – | – | – | –

Sequence | binding signal (FLI1) | binding signal (ETV5) | binding signal (ELF4) | binding signal (ETV2) | binding signal (EHF) | binding signal (SPIB) | binding signal (ETV3L)
TATACC | 1.29 | 1.09 | – | – | – | – | –
AAAATA | 1.17 | 1.17 | 1.17 | – | – | – | –
CGCCGC | 1.35 | 1.13 | – | – | – | – | –
CCCATA | 1.23 | 1.23 | – | – | – | – | –
CCCCGA | 1.23 | 1.14 | – | – | – | – | –
CTACAT | 1.43 | 1.45 | 1.37 | – | – | – | –
GATATT | 1.11 | 1.14 | 1.12 | – | – | – | –
CAATAG | 1.07 | 1.11 | – | – | – | – | –
TTTTCG | 1.18 | 1.27 | – | – | – | – | –
CATCTC | 1.42 | 1.29 | 1.26 | – | – | – | –
GCTCTA | 1.17 | 1.21 | 1.21 | – | – | – | –
ATATCC | 2.59 | 2.97 | – | – | – | – | –
ATTCAC | 1.23 | 1.21 | 1.31 | – | – | – | –
CCGGCG | 0.918 | 0.939 | 0.935 | – | – | – | –
CTAGCG | 0.956 | 1.22 | 1.1 | – | – | – | –
TTGTTG | 1.03 | 1.08 | 1.21 | – | – | – | –
CCTCGA | 1.33 | 1.27 | – | – | – | – | –
CTCGGT | 1.12 | 1.1 | – | – | – | – | –
CATAGA | 0.97 | 0.871 | 0.918 | 0.928 | 0.896 | 0.916 | 0.915
GTGGTT | 0.897 | 0.918 | 0.849 | 0.833 | 0.851 | 0.959 | 0.906
AGATAT | 0.921 | 0.965 | 0.955 | 0.822 | 0.959 | 0.995 | 0.978
CCAAAG | 0.896 | 0.911 | 0.964 | 0.944 | 0.933 | – | 0.96

Some of the entries above in a different format:

| Sequence | binding signal (FLI1) | binding signal (ETV5) | binding signal (ELF4) | binding signal (ETV2) | binding signal (EHF) | binding signal (SPIB) | binding signal (ETV3L) |
| --- | --- | --- | --- | --- | --- | --- | --- |
| ACGGCT | 1.02 | 1.13 | – | – | – | – | – |
| CCGGCG | 0.918 | 0.939 | 0.935 | – | – | – | – |

Next entries.

Sequence | binding signal (FLI1) | binding signal (ETV5) | binding signal (ELF4) | binding signal (ETV2) | binding signal (EHF) | binding signal (SPIB) | binding signal (ETV3L)
CGGCAC | 0.965 | 0.977 | 0.94 | 0.875 | 0.997 | – | 0.985
ATCCGT | 0.983 | 1.05 | 0.903 | 0.917 | 0.987 | – | 0.971
CCGTTA | 0.932 | 0.924 | 0.894 | 1.05 | 0.897 | 0.986 | 0.865
TCATAG | 0.926 | 0.889 | 0.887 | 0.921 | 0.793 | 0.979 | 0.922
CAAAGA | 0.875 | 0.938 | 0.934 | 0.956 | 0.98 | 0.951 | 0.902
CTTGGC | 1.19 | 1.1 | 1.21 | 0.997 | – | – | –
CACTGA | 0.929 | 0.885 | 0.958 | 0.96 | 0.871 | 0.886 | 0.936
ACCAAG | 0.907 | 0.91 | 0.973 | 0.939 | 0.906 | 0.834 | 0.931
GTACAG | 0.97 | 0.924 | 0.995 | 0.896 | 0.921 | – | 0.937
GTAGCA | 1.03 | 1.13 | 1.07 | 1.11 | – | – | –
AGTCTT | 0.959 | 0.926 | 0.87 | 0.799 | 0.945 | 0.795 | 0.996
TTAGAG | 0.941 | 0.823 | 0.924 | 1.01 | 0.882 | 0.891 | 0.927
GTGGTA | 0.954 | 0.939 | 0.89 | 0.915 | 0.924 | – | 0.894
GAATCA | 0.901 | 0.917 | 0.86 | 0.951 | 0.973 | – | 0.938
AGGGAA | 0.901 | 0.989 | 0.864 | 0.914 | – | – | 0.992
ACAGTT | 0.852 | 0.887 | 0.837 | 0.812 | 0.836 | 0.841 | 0.858
ATAACG | 0.964 | 0.96 | 0.945 | 0.982 | 0.979 | – | 0.941
TCGTCC | 1.1 | 1.01 | 0.994 | 0.968 | – | – | 0.988
GTCTAG | 0.901 | 0.847 | 0.831 | 0.954 | 0.879 | 0.788 | 0.857
GTGATG | 0.94 | 0.893 | 0.991 | 0.883 | 0.85 | – | 0.892
GAGAAA | 0.721 | 0.758 | 0.745 | 0.685 | 0.717 | 0.733 | 0.72
AGGCAC | 0.855 | 0.884 | 0.928 | 0.876 | 0.853 | 0.949 | 0.872
